For this assay, the target named is T1, CCZ1 (endogenous) (mouse (endogenous in N2a cells and mouse brain)) (UniProt Q8C1Y8).
T1 sequence: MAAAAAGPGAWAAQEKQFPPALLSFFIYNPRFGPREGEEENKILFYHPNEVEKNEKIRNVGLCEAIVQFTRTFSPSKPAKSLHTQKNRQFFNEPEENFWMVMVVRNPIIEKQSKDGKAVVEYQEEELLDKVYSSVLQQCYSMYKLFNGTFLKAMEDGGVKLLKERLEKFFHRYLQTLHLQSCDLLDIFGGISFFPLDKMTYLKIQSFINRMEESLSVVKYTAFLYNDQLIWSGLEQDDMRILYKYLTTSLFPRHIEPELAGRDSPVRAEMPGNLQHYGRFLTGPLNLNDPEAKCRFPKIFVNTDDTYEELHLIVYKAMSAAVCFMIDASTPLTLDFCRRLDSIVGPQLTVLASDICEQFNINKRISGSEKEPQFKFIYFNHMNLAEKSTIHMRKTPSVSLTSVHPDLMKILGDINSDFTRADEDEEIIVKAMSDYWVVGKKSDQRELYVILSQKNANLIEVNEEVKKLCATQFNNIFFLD
Kind of assay: co-IP; N2a cell and mouse brain tissue lysates; IP of the endogenous protein with CCZ1 antibody; immunoblot with LC3 and VPS34 antibodies; CCZ1-bound VPS34 from WT and 3xTg AD mouse brain also taken to a lipid kinase assay.

The chains behind the UniProt entries cited, without tags or fusion partners.
UniProt Q6PF93: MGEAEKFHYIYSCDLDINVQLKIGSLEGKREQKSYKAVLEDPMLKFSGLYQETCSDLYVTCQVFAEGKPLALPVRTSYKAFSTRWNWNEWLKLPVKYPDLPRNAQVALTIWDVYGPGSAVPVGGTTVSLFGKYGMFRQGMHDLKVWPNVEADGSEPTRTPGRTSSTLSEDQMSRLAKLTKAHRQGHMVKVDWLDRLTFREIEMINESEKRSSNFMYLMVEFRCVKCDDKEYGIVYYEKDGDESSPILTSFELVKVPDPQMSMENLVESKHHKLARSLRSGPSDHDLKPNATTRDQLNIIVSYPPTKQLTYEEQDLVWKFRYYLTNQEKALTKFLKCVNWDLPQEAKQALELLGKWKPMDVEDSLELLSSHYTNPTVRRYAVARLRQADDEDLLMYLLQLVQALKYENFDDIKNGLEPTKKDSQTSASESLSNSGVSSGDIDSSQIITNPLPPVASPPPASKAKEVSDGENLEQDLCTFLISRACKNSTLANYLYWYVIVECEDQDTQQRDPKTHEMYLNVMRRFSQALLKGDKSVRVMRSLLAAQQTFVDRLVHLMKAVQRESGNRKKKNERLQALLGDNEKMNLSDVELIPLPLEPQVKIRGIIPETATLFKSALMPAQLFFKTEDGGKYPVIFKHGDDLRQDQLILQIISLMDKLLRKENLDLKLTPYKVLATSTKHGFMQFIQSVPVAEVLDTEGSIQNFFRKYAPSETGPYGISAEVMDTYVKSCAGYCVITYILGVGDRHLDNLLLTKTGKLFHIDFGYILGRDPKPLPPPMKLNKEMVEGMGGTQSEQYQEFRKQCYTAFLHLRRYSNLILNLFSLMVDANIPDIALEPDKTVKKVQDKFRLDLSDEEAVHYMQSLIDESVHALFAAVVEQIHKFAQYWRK

Binding data for one substance are collected here from article PMC8825577.

These are yes or no findings as the source states them, for the method shown. Binding seen in cells or lysates may run through a third protein. Some binding calls cover weakened binding; strength is not graded here.

For “PIK3C3/VPS34 (endogenous) (from UniProt Q6PF93 1-887) (enzyme)”, the binding entry was “binds”.
